{"source": "the supplement of paper PMC10338343", "note": "± gives the standard deviation. The list shows a part of the results. The uncertainty is large for many entries.", "data": [{"test_system": "EfPiwi piRISC loaded with L1MC piRNA (26 nt)", "test": "pre-steady-state target cleavage rate (min^-1); guide: L1MC piRNA 5'p-UAACUAAAUACUAUGCAAGCUGUAGG; higher = faster piRNA-guided slicing of the target", "details": "auxiliary factor: 500 nM Ephydatia muelleri Gtsf1", "method": "(§1)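 Cleave-'n-Seq: a library of target RNAs (target site in constant flanks) at […] was incubated with 1 nM active freshwater sponge Ephydatia fluviatilis Piwi piRISC (synthetic 5'-monophosphorylated piRNA guide) with or without 500 nM EmGtsf1 at 33 °C for 1 min to 16 h. Uncleaved targets were sequenced and the pooled three trials fitted to a burst-and-steady-state model to give the pre-steady-state cleavage rate (min^-1). Sequence is the target site only. Fits with R² ≤ 0 are excluded.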", "values": [{"sequence": "UCCUGGAUGUCGAAGCAUACUAAUUAGUUA", "pre-steady-state target cleavage rate": "0.000539 ± 0.0082"}, {"sequence": "UCCUGGAUGUCGAUGGAUAGUAUUAAGUUA", "pre-steady-state target cleavage rate": "0.000154 ± 0.018"}, {"sequence": "UCCUGCUACAGCUUGCAUAGUAAUUAGUUA", "pre-steady-state target cleavage rate": "0.0061 ± 0.0022"}, {"sequence": "UCCUGGAUGUGCUUGCAUAGCAUUUAGUUA", "pre-steady-state target cleavage rate": "0.00505 ± 0.0018"}, {"sequence": "UCCUGGAUGUCGAAGCAUAGUAUCUUAGUUA", "pre-steady-state target cleavage rate": "0.00163 ± 0.0055"}, {"sequence": "UCCUGGAACAGCUUGCAUAGUUUUUUGUUA", "pre-steady-state target cleavage rate": "0.00325 ± 0.0013"}, {"sequence": "UCCUGGAUCACCAUGCAUAGUAUUUAGUUA", "pre-steady-state target cleavage rate": "0.013 ± 0.0061"}, {"sequence": "UCCUGGAUGUCGUUGCAAAGUAUUUAGAUA", "pre-steady-state target cleavage rate": "0.00108 ± 0.0069"}, {"sequence": "UCCUGGAUGUCGAUGCAUAGUUAUUUAGUUA", "pre-steady-state target cleavage rate": "0.000318 ± 0.0091"}, {"sequence": "UCCUCCUACAGCUUGCAUAGUUUUUAGAUA", "pre-steady-state target cleavage rate": "0.00341 ± 0.0022"}, {"sequence": "UCCUGGAUGUCGAUGCAUAGUAUUUAAGUUA", "pre-steady-state target cleavage rate": "0.00522 ± 0.0045"}, {"sequence": "UCCUGGAAGUCCUUGCAUAGUAUUUAGUUA", "pre-steady-state target cleavage rate": "0.0092 ± 0.0031"}, {"sequence": "UCCUGGAUGUCCUUGCAUAGUAUUUAGAUA", "pre-steady-state target cleavage rate": "0.00461 ± 0.0029"}, {"sequence": "UCCUGGAUGUCCUUGCAUAUUAUUUAGUUA", "pre-steady-state target cleavage rate": "0.00283 ± 0.0025"}, {"sequence": "UCCUGGUACAGACUUGCAUAGUAUUUAGUUA", "pre-steady-state target cleavage rate": "0.00211 ± 0.0051"}, {"sequence": "UCCUGCUACAGCUUGCAUAGUUAAUAGUAA", "pre-steady-state target cleavage rate": "0.00149 ± 0.0022"}, {"sequence": "UCCUGGAUGUCGAUGCAAGUAUUUAGUUA", "pre-steady-state target cleavage rate": "0.000747 ± 0.0084"}, {"sequence": "UCCUGGAUGAGCUUGCUUAGUAUUUACUUA", "pre-steady-state target cleavage rate": "0.00313 ± 0.0034"}, {"sequence": "UCCUGGAACAGCUUGCAUAGUAAUUACAAA", "pre-steady-state target cleavage rate": "0.00292 ± 0.0029"}, {"sequence": "UCCUGGAACAGCAUGGAUAGUAUUUAGUUA", "pre-steady-state target cleavage rate": "0.00527 ± 0.0017"}, {"sequence": "UCCUGGAACAGCUUGCUUAGUUUUUAGUUA", "pre-steady-state target cleavage rate": "0.00252 ± 0.0038"}]}, {"test_system": "EfPiwi piRISC loaded with L1MC piRNA (26 nt)", "test": "pre-steady-state target cleavage rate (min^-1); guide: L1MC piRNA 5'p-UAACUAAAUACUAUGCAAGCUGUAGG; MIWI and MILI are mouse PIWI proteins and EfPiwi is from a freshwater sponge; tags in brackets are library labels; higher = faster piRNA-guided slicing of the target", "details": "auxiliary factor: none (no Gtsf1)", "method": "as §1", "values": [{"sequence": "UCCUGGAUGUCGAAGCAUACUAAUUAGUUA", "pre-steady-state target cleavage rate": "< 0.0001"}, {"sequence": "UCCUGGAUGUGCUUGCAUAGCAUUUAGUUA", "pre-steady-state target cleavage rate": "0.00136 ± 0.0067"}, {"sequence": "UCCUGGAUGUCGAAGCAUAGUAUCUUAGUUA", "pre-steady-state target cleavage rate": "0.0004 ± 0.021"}, {"sequence": "UCCUGGAACAGCUUGCAUAGUUUUUUGUUA", "pre-steady-state target cleavage rate": "0.00115 ± 0.0086"}, {"sequence": "UCCUGGAUCACCAUGCAUAGUAUUUAGUUA", "pre-steady-state target cleavage rate": "0.000907 ± 0.011"}, {"sequence": "UCCUGGAUGUCGUUGCAAAGUAUUUAGAUA", "pre-steady-state target cleavage rate": "0.000268 ± 0.036"}, {"sequence": "UCCUGGAUGUCGAUGCAUAGUUAUUUAGUUA", "pre-steady-state target cleavage rate": "0.000335 ± 0.024"}, {"sequence": "UCCUCCUACAGCUUGCAUAGUUUUUAGAUA", "pre-steady-state target cleavage rate": "0.000481 ± 0.013"}, {"sequence": "UCCUGGAUGUCGAUGCAUAGUAUUUAAGUUA", "pre-steady-state target cleavage rate": "0.000254 ± 0.028"}, {"sequence": "UCCUGGAAGUCCUUGCAUAGUAUUUAGUUA", "pre-steady-state target cleavage rate": "0.000749 ± 0.0077"}, {"sequence": "UCCUGGAUGUCCUUGCAUAGUAUUUAGAUA", "pre-steady-state target cleavage rate": "0.000323 ± 0.012"}, {"sequence": "UCCUGGUACAGACUUGCAUAGUAUUUAGUUA", "pre-steady-state target cleavage rate": "0.000474 ± 0.02"}, {"sequence": "UCCUGCUACAGCUUGCAUAGUUAAUAGUAA", "pre-steady-state target cleavage rate": "0.000319 ± 0.019"}, {"sequence": "UCCUGGAUGUCGAUGCAAGUAUUUAGUUA", "pre-steady-state target cleavage rate": "< 0.0001"}, {"sequence": "UCCUGGAUGAGCUUGCUUAGUAUUUACUUA", "pre-steady-state target cleavage rate": "0.000578 ± 0.016"}, {"sequence": "UCCUGGAACAGCUUGCAUAGUAAUUACAAA", "pre-steady-state target cleavage rate": "0.000471 ± 0.014"}, {"sequence": "UCCUGGAACAGCAUGGAUAGUAUUUAGUUA", "pre-steady-state target cleavage rate": "0.000523 ± 0.017"}, {"sequence": "UCCUGGAACAGCUUGCUUAGUUUUUAGUUA", "pre-steady-state target cleavage rate": "0.000804 ± 0.012"}]}]}
